Measurements taken from publication PMC9041927, “Aptamer based surface plasma resonance assay for direct detection of neuron specific enolase and progastrin-releasing peptide (31-98)†”.
The comparison behind a weaker result is the experiment's own reference, which may not be listed here. For some assays here: Protein sequences can lack the tags named with them. For some assays here: For at least one entry, the source does not settle the construct or the ends of the probe. For some assays here: At least one verdict rests on a figure or table, not on a statement of the authors.

Chains of the proteins cited; added tags and fusions are not shown. Chains listed by the source or under a name are the forms on record and can include a tag or linker. Residues count along the entry.
UniProt P02771, 19-609: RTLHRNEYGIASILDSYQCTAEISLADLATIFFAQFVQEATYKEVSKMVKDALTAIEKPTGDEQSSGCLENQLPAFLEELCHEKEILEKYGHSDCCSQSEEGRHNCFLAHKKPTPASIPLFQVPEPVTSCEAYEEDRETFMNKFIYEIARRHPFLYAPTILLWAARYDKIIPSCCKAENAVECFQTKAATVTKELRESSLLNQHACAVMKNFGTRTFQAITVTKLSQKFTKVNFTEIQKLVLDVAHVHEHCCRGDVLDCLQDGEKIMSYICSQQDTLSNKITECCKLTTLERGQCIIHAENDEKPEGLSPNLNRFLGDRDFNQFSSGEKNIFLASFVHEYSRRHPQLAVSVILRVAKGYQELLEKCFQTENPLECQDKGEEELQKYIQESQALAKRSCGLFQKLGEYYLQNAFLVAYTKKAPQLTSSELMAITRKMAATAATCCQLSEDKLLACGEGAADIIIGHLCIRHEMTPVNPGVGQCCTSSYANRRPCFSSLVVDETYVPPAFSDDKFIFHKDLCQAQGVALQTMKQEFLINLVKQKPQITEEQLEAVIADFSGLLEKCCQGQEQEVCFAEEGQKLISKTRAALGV
UniProt P09104, 2-434: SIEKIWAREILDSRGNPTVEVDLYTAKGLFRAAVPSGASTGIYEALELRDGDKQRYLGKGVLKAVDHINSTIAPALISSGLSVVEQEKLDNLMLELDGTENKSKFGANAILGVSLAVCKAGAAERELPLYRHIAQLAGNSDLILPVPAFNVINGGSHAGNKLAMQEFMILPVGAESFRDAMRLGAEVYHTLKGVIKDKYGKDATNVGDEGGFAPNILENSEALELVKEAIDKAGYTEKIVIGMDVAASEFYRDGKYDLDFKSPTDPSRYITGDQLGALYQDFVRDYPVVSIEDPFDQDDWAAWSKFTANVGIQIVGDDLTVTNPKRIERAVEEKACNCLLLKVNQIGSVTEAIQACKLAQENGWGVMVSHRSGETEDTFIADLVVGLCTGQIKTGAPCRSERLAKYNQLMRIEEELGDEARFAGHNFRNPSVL
mucin-1 (MUC1) (human), one chain, as listed by the source: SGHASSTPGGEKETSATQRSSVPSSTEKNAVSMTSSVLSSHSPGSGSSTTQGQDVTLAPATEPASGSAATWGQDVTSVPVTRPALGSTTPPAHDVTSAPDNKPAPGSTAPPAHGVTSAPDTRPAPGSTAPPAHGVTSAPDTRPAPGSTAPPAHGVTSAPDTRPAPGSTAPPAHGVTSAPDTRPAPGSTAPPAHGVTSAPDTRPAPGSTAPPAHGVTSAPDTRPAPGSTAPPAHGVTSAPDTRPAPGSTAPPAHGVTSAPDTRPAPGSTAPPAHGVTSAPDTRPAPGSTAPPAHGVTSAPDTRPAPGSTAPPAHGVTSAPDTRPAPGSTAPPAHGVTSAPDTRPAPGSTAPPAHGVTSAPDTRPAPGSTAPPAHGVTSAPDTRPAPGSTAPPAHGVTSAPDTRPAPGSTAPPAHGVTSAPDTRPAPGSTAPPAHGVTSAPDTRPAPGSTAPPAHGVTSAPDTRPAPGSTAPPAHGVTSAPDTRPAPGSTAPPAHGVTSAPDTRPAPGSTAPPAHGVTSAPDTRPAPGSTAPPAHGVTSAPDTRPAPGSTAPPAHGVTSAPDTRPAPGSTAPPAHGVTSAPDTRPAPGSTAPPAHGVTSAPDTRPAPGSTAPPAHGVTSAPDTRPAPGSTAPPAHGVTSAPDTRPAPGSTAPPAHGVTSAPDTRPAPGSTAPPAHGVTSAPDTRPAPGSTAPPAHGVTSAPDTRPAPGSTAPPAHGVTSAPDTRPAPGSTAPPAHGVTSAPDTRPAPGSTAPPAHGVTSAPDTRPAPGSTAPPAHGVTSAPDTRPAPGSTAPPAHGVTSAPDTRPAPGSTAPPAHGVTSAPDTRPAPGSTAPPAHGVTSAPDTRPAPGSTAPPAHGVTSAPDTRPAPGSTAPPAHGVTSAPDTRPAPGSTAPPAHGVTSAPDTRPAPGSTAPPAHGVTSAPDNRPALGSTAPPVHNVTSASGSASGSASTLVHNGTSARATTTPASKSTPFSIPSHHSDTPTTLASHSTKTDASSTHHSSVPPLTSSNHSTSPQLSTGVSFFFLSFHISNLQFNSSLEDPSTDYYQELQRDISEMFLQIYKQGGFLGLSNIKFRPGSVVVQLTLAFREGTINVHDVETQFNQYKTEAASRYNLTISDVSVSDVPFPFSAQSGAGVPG

Tests used:
Test in all cases: SPR
[1] = target: alpha-fetoprotein (AFP) antigen (UniProt P02771); conditions: SPR (Biacore X100, SA chip), 1x PBS pH 7.5, 0.1% Tween 20, 5 mM MgCl2 (NSE) or 2 mM MgCl2 (ProGRP31-98), temperature not stated, commercial protein, label: 5' biotin-TEG, single-stranded DNA
[2] = target: carbohydrate antigen 125 (CA125) (human) (UniProt Q8WXI7); conditions: SPR (Biacore X100, SA chip), 1x PBS pH 7.5, 0.1% Tween 20, 5 mM MgCl2 (NSE) or 2 mM MgCl2 (ProGRP31-98), temperature not stated, recombinant protein, label: 5' biotin-TEG, single-stranded DNA
[3] = target: T1, carcinoembryonic antigen (CEA) (human) (UniProt P06731); conditions: SPR (Biacore X100, SA chip), 1x PBS pH 7.5, 0.1% Tween 20, 5 mM MgCl2 (NSE) or 2 mM MgCl2 (ProGRP31-98), temperature not stated, recombinant protein, label: 5' biotin-TEG, single-stranded DNA
T1 sequence (looked up, limits assumed): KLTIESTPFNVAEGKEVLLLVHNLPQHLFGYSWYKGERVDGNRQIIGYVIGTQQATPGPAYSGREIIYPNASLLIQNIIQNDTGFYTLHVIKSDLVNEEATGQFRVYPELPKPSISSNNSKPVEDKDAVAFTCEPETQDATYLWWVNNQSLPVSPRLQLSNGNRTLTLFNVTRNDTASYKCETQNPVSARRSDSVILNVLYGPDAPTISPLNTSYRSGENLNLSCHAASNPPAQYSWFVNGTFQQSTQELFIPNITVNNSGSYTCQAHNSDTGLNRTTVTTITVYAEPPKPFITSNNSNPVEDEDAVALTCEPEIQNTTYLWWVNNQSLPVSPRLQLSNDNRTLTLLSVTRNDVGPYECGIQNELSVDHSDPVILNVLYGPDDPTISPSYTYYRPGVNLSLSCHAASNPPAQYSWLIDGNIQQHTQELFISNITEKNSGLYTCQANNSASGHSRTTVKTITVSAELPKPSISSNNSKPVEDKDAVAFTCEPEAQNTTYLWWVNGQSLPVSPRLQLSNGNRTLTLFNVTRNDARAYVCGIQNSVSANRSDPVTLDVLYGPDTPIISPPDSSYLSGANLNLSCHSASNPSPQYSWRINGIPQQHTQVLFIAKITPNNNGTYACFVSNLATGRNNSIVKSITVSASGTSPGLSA

mucin-1 (MUC1) (human) = conditions: SPR (Biacore X100, SA chip), 1x PBS pH 7.5, 0.1% Tween 20, 5 mM MgCl2 (NSE) or 2 mM MgCl2 (ProGRP31-98), temperature not stated, recombinant protein, label: 5' biotin-TEG, single-stranded DNA
[4] = target: neuron specific enolase (NSE) (UniProt P09104); conditions: SPR (Biacore X100, SA chip), 1x PBS pH 7.5, 0.1% Tween 20, 5 mM MgCl2 (NSE) or 2 mM MgCl2 (ProGRP31-98), temperature not stated, recombinant protein, label: 5' biotin-TEG, single-stranded DNA
[5] = target: T2, progastrin-releasing peptide (31-98) (ProGRP31-98) (UniProt P07492); conditions: little increase of signal; SPR (Biacore X100, SA chip); 1x PBS pH 7.5, 0.1% Tween 20, 5 mM MgCl2 (NSE) or 2 mM MgCl2 (ProGRP31-98); temperature not stated; commercial protein; residues 54-121; label: 5' biotin-TEG; single-stranded DNA
T2 sequence (looked up): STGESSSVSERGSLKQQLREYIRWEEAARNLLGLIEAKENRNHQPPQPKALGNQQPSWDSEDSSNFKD

Does “CATGCGGAGTAGATTCGAGCCCAGATAGTCCCTGGTTATTTCCTTAGG [ProGRP-48-5BioTEG]” bind ([1]; weak response)?
Result: binds more weakly

Does “CATGCGGAGTAGATTCGAGCCCAGATAGTCCCTGGTTATTTCCTTAGG [ProGRP-48-5BioTEG]” bind ([2]; weak response)?
Result: binds more weakly

Does “CATGCGGAGTAGATTCGAGCCCAGATAGTCCCTGGTTATTTCCTTAGG [ProGRP-48-5BioTEG]” bind ([3]; weak response)?
Result: binds more weakly

Does “CATGCGGAGTAGATTCGAGCCCAGATAGTCCCTGGTTATTTCCTTAGG [ProGRP-48-5BioTEG]” bind (mucin-1 (MUC1) (human); weak response)?
Result: binds more weakly

Does “CATGCGGAGTAGATTCGAGCCCAGATAGTCCCTGGTTATTTCCTTAGG [ProGRP-48-5BioTEG]” bind ([4]; weak response)?
Result: binds more weakly

Does “TCACACACGGACCTCTCCTACATTAATTGCGCATTTCGTT [NSE-Apt5-5BioTEG]” bind ([1]; little increase of signal)?
Result: binds more weakly

Does “TCACACACGGACCTCTCCTACATTAATTGCGCATTTCGTT [NSE-Apt5-5BioTEG]” bind ([2]; little increase of signal)?
Result: binds more weakly

Does “TCACACACGGACCTCTCCTACATTAATTGCGCATTTCGTT [NSE-Apt5-5BioTEG]” bind ([3]; little increase of signal)?
Result: binds more weakly

Does “TCACACACGGACCTCTCCTACATTAATTGCGCATTTCGTT [NSE-Apt5-5BioTEG]” bind (mucin-1 (MUC1) (human); little increase of signal)?
Result: binds more weakly

And the Kd ([4]; NSE-immobilized CM5 chip)?
Its Kd is 12 nM.

Does “TCACACACGGACCTCTCCTACATTAATTGCGCATTTCGTT [NSE-Apt5-5BioTEG]” bind [5]?
Result: binds more weakly
